Assay results reported in patent US20240209095A1.
No constants are given. Whether binding was seen depends on the method and setting. Some results given as binding are weak or reduced against the parent protein; the word gives no strength.

Amino acid sequences for entries named in this document (tags omitted).
UniProt Q9NZQ7: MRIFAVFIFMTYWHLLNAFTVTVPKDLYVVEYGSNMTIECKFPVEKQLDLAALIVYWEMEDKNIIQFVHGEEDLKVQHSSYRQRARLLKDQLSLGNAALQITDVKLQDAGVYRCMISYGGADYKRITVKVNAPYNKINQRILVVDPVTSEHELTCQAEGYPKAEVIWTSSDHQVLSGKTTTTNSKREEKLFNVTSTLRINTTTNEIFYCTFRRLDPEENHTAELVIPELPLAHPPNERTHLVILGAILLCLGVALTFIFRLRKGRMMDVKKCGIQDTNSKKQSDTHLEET

How the values were obtained:
PDL1-hFc [1] = target: PDL1-hFc (UniProt Q9NZQ7); assay: ELISA, PDL1-hFc coated, antibody at 300 ng/ml
[2] = target: human PD-L1 (coated on ELISA plate) (human) (UniProt Q9NZQ7); assay: ELISA, PD-L1 coated 0.1 µg/well
PDL1-hFc [3] = target: PDL1-hFc (UniProt Q9NZQ7); assay: ELISA titration on PDL1-hFc
PDL1-hFc [4] = target: PDL1-hFc (UniProt Q9NZQ7); assay: ELISA titration on PDL1-hFc (FIG. 11)

B1: 3C3 humanized antibody HuB2Hu (antibody, V domains shown)
VH: EVQLQESGPGLVKPSQTLSLTCTVSGYSITSDYWDWIRKPPGKGLEYMGYISYTGSTYYNPSLRSRITISRDTSKNQYSLKLSSVTAADTAVYYCARRGGWLSPFVYWGQGTLVTVSS
VL: DIQMTQSPSSLSASVGDRVTITCKSRQSLLFSSNQKNSLAWYQQKPGKAPKLLIYWASTRESGVPSRFSGSGSGTDFTLTISSLQPEDFATYYCQQYYTYPFTFGQGTKLEIK
- binding (PDL1-hFc [1]): binds

B2: 3C3 humanized antibody HuB2Hu2 (antibody, V domains shown)
VH: EVQLQESGPGLVKPSQTLSLTCTVSGYSITSDYWDWIRKPPGKGLEYMGYISYTGSTYYNPSLRSRITISRDTSKNQYSLKLSSVTAADTAVYYCARRGGWLSPFVYWGQGTLVTVSS
VL: DIVMTQTPLSLSVTPGQPASISCKSRQSLLFSSNQKNSLAWYLQKPGQSPQLLIYWASTRESGVPDRFSGSGSGTDFTLKISRVEAEDVGVYYCQQYYTYPFTFGQGTKLEIK
- binding (PDL1-hFc [1]): binds

B3: mouse hybridoma anti-human PD-L1 antibody 1G8 (antibody, V domains shown)
VH: QVQLQESGPGLAKPSQTLSLTCSVTGYSITSDYWNWIRKFPGNKLEFMGYISYTGSTYYNPSLKSRISITRDTSKNQYYLQLNSVTTEDTATYYCARRGEWLSPFAYWGQGTLVTVSA
VL: DIVMSQSPSSLGVSVGEKITMSCKSSQSLLYSSNQKNSLAWYQQKPGQSPKLLIYWASTRESGVPDRFTGSGSGTDFTLTISSVKSEDLAVYYCQQYYTYPFTFGAGTNLELK
- binding [2]: binds

B4: mouse hybridoma anti-human PD-L1 antibody 3C3 (antibody, V domains shown)
VH: EVQLQESGPGLTKPSQTLSLTCSVTGYSITSDYWDWIRKFPGNKLEYMGYISYTGSTYYNPSLRSRISITRDTSKNQYYLQLSSVTSEDSATYYCARRGGWLSPFVYWGQGTLVTVSA
VL: DTVMSQSPSSLGVSVGERVTLTCKSRQSLLFSSNQKNSLAWYQQKPGQSPKLLIYWASTRESGVPDRFTGSGSGTDFTLTISSVKSEDLAVYYCQQYYTYPFTFGAGTSLELK
- binding [2]: binds

B5: 1G8 humanized antibody HuHu (antibody, V domains shown)
VH: QVQLQESGPGLVKPSQTLSLTCTVSGYSITSDYWNWIRQPPGKGLEWIGYISYTGSTYYNPSLKSRVTISVDTSKNQFSLKLSSVTAADTAVYYCARRGEWLSPFAYWGQGTLVTVSS
VL: DIQMTQSPSSLSASVGDRVTITCKSSQSLLYSSNQKNSLAWYQQKPGKAPKLLIYWASTRESGVPSRFSGSGSGTDFTLTISSLQPEDFATYYCQQYYTYPFTFGQGTKLEIK
- binding (PDL1-hFc [3]): binds

B6: 1G8 humanized antibody HuHu2 (antibody, V domains shown)
VH: QVQLQESGPGLVKPSQTLSLTCTVSGYSITSDYWNWIRQPPGKGLEWIGYISYTGSTYYNPSLKSRVTISVDTSKNQFSLKLSSVTAADTAVYYCARRGEWLSPFAYWGQGTLVTVSS
VL: DIVMTQTPLSLSVTPGQPASISCKSSQSLLYSSNQKNSLAWYLQKPGQSPQLLIYWASTRESGVPDRFSGSGSGTDFTLKISRVEAEDVGVYYCQQYYTYPFTFGQGTKLEIK
- binding (PDL1-hFc [3]): binds

B7: 1G8 humanized antibody HuB2Hu (antibody, V domains shown)
VH: EVQLQESGPGLVKPSQTLSLTCTVSGYSITSDYWNWIRKPPGKGLEYMGYISYTGSTYYNPSLKSRITISRDTSKNQYSLKLSSVTAADTAVYYCARRGEWLSPFAYWGQGTLVTVSS
VL: DIQMTQSPSSLSASVGDRVTITCKSSQSLLYSSNQKNSLAWYQQKPGKAPKLLIYWASTRESGVPSRFSGSGSGTDFTLTISSLQPEDFATYYCQQYYTYPFTFGQGTKLEIK
- binding (PDL1-hFc [4]): binds

B8: 1G8 humanized antibody HuB2Hu2 (antibody, V domains shown)
VH: EVQLQESGPGLVKPSQTLSLTCTVSGYSITSDYWNWIRKPPGKGLEYMGYISYTGSTYYNPSLKSRITISRDTSKNQYSLKLSSVTAADTAVYYCARRGEWLSPFAYWGQGTLVTVSS
VL: DIVMTQTPLSLSVTPGQPASISCKSSQSLLYSSNQKNSLAWYLQKPGQSPQLLIYWASTRESGVPDRFSGSGSGTDFTLKISRVEAEDVGVYYCQQYYTYPFTFGQGTKLEIK
- binding (PDL1-hFc [4]): binds
